We go through 58 compounds from PubChem BioAssay AID2685 (National Center for Advancing Translational Sciences (NCATS), 2010).

This assay in a line: qHTS Assay for Lipid Storage Modulators in Drosophila S3 Cells.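 On cell number change: cells counted by Cell Tracker Red CMTPX staining in the red channel.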 The settings on record: BODIPY lipid droplet fluorescence, 18-24 h; for cell number change: measured here: cell count max response, cells fed with added oleic acid. The method in brief:
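Laser-scanning cytometry quantifies lipid droplet accumulation (500–530 nm total intensity; droplet/cell object ratio) in oleic acid-fed (400 uM added) Drosophila S3 cells treated with a concentration series. 20 uM Triacsin C defined 100% inhibition.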
On the technique in general: Quantitative high-throughput screening tests each substance at several concentrations.

[1] abbreviates: measured here: cell number channel AC50, cells fed with added oleic acid.
Where [2] appears, read: measured here: lipid fluorescence (Fed channel) AC50, cells fed with added oleic acid.

The other results are listed elsewhere or left out. Further columns of the screen follow, without active or inactive calls. Compounds called inactive in the main read-out are mostly missing here. Potencies come from curve fits of mixed quality, noted in brackets.

Broadly, the AC50 is the concentration at which the activity in the assay is half-maximal. A low value points to activity at low concentration. As to `Nc1ccc(-n2nncc2-c2ccc(Cl)cc2)cc1`, the AC50 by setting is: under setting [1], 1.46 µM [rising, partial curve, poor fit]; under setting [2], 2.06 µM [rising, partial curve].

Consider `CCOC(=O)C1CCN(c2cc3c(cc2NC(=O)c2ccccc2F)n(C)c(=O)n3C)CC1`, for which the cell number change worked out at 6.84%. Moreover, the AC50 under setting [1] is 0.517 µM [falling, full curve, poor fit]. Also, the concentration at half-maximal activity (AC50) under setting [2] is 20.6 µM [falling, partial curve].

Take `O=[N+]([O-])c1ccc(Cc2nnc(-c3ccccc3Cl)o2)cc1`: the cell number change stood at 27.1%. For the same compound, the AC50 under setting [2] is 0.092 µM [rising, partial curve, poor fit].

With `O=c1c2[nH]c3ccc(Cl)cc3c2ncn1Cc1ccccn1`, the cell number change was found to be 201%. Besides, under setting [1], the AC50 was 23.1 µM [rising, partial curve].

Take `Cc1csc(NC(=O)CSc2nc(C(C)C)nc3c2c(=O)n(C)c(=O)n3C)n1`: the cell number change is -47.5%. For the same compound, the AC50 under setting [1] was 18.4 µM [falling, single point]. In addition, the AC50 under setting [2] was 20.6 µM [falling, partial curve].

On to `Cc1nnc(SCCC#N)n(CCC#N)c1=O`, for which the cell number change is 1.69%.

With `O=C(c1ccc(CSc2nc3ccncc3[nH]2)cc1)N1CCCCC1`, the cell number change turned out to be 10.4%. The AC50 under setting [2] was 2.31 µM [rising, partial curve].

Turning to `COc1cccc(NC(=O)Cc2ccccc2)c1`, the cell number change stood at 6.24%. Also, the AC50 under setting [2] is 0.731 µM [falling, full curve].

With `CCCCC(=O)NC(Nc1ccc(C)cn1)(C(=O)OCC)C(F)(F)F` (stereo not drawn), the cell number change was -23.7%. Also, the AC50 under setting [2] was 9.2 µM [falling, partial curve].

For the compound `COc1ccc(NC(=O)c2noc(C(C)C)c2[N+](=O)[O-])cc1`, the cell number change was -4.28%.

As to `CCCCC(=O)Nc1ccc(C(=O)Nc2ccc(S(=O)(=O)Nc3nccc(C)n3)cc2)cc1`, the cell number change is -100%. Also, under setting [1], the AC50 is 4.11 µM [falling, partial curve].

Consider `Cc1ncc([N+](=O)[O-])n1CC(=O)Nc1ccc2c(c1)OCO2`, for which the cell number change is -28.6%. Also, the AC50 under setting [2] was 0.731 µM [falling, full curve].

For the compound `O=C(N/N=C/c1cccnc1)c1ccc([N+](=O)[O-])cc1Cl`, the cell number change was -26.7%. For the same compound, the AC50 under setting [2] is 8.2 µM [falling, partial curve].

Consider `O=[N+]([O-])c1cnccc1Nc1ccccc1`, for which the cell number change is -33.9%. In addition, the half-maximal activity concentration (AC50) under setting [1] was 16.4 µM [falling, single point]. Besides, the AC50 under setting [2] is 5.8 µM [rising, single point].

For `O=[N+]([O-])c1ccc2c(c1)nc1n2CCN(C2CCCCC2)C1`, the cell number change came out at 5.23%.

On to `CC(OC(=O)c1ccc([N+](=O)[O-])s1)C(=O)Nc1ncc(Cl)cc1Cl` (stereo not drawn), for which the cell number change is -18.2%. For the same compound, the AC50 under setting [2] was 29.1 µM [falling, single point].

`CO[C@@]1(NC(=O)C2SC(=C(C(N)=O)C(=O)O)S2)C(=O)N2C(C(=O)O)=C(CSc3nnnn3C)CS[C@@H]21` (stereo partly drawn): the cell number change is -20.6%. Further, under setting [1], the AC50 is 0.184 µM [falling, full curve, poor fit]. Further, under setting [2], the AC50 was 0.116 µM [falling, full curve, poor fit].

Turning to `COC(=O)c1cccc(Nc2cc(C)nc(-c3ccccc3O)n2)c1`, the cell number change is -55.9%.

On to `CSc1ccc(CN(C)CC(=O)Nc2ccccc2C(=O)NC2CC2)cc1`, for which the cell number change amounted to 5.99%. Also, the AC50 under setting [2] was 29.1 µM [falling, single point].

In the case of `CCOc1ccc(N(CC(=O)Nc2cccnc2)S(=O)(=O)c2ccc(C)cc2)cc1`, the cell number change is 70.4%. In addition, the AC50 under setting [1] was 29.1 µM [rising, single point].

Turning to `COc1cc(OC)c(C#N)c(S(=O)Cc2ccccc2)c1` (stereo not drawn), the cell number change stood at 39.6%. Also, the AC50 under setting [1] is 29.1 µM [rising, single point]. In addition, the AC50 under setting [2] is 4.11 µM [falling, single point].

Regarding `O=C(Nc1ncc2c(n1)-c1ccccc1OC2)c1ccc(F)cc1`, the cell number change was found to be 51.5%. For the same compound, under setting [1], the AC50 is 29.1 µM [rising, single point]. Further, the AC50 under setting [2] was 6.51 µM [rising, partial curve].

Consider `Cc1cc(C(=O)Nc2cccc(S(=O)(=O)N3CCCCC3)c2)c2ccccc2n1`, for which the cell number change is 15.9%. In addition, under setting [1], the AC50 is 0.00517 µM [rising, full curve, poor fit]. The AC50 under setting [2] is 0.00461 µM [rising, full curve, poor fit].

Turning to `O=C(c1ccccc1)c1ccc2nc(-c3ccc(NC(=O)c4ccccc4F)cc3)[nH]c2c1`, the cell number change is -51.4%. Under setting [2], the AC50 was 14.6 µM [falling, partial curve].

On to `CC(=O)N1CCN(CC(=O)Nc2ccccc2C(=O)NCc2ccc(C)cc2)CC1`, for which the cell number change is 1.32%. Moreover, under setting [2], the AC50 was 0.631 µM [rising, partial curve, poor fit].

On to `CCCCOc1ccc(C(=O)NCC2(c3ccc(OC)cc3)CCOCC2)cc1`, for which the cell number change is -44%. Under setting [1], the AC50 is 29.1 µM [falling, single point]. For the same compound, the AC50 under setting [2] is 1.16 µM [falling, partial curve].

For the compound `C=CCSc1[nH]c(=O)cc(C)c1C(N)=O`, the cell number change is -55.5%. Besides, under setting [1], the AC50 is 7.31 µM [falling, partial curve]. Also, the AC50 under setting [2] is 5.8 µM [falling, full curve].

On to `CCN(C(=O)CSc1nnc(-c2cccs2)n1N)c1c(N)n(Cc2ccccc2)c(=O)[nH]c1=O`, for which the cell number change came to 5.5%. Further, the AC50 under setting [2] was 29.1 µM [falling, single point].

`C=CCn1c(SCc2cc(=O)n3ccsc3n2)nc2scc(C3CC3)c2c1=O`: the cell number change was found to be 12.8%. The AC50 under setting [2] is 1.3 µM [rising, full curve, poor fit].

As for `CC(=O)N=c1scc(-c2ccccc2)n1-c1cccc(O)c1`, the cell number change was found to be 29.6%. Further, the AC50 under setting [2] is 29.1 µM [falling, single point].

Consider `CCOC(=O)c1ccccc1N=Cc1c(O)c2ccccc2oc1=O`, for which the cell number change stood at 10.1%. The AC50 under setting [2] was 29.1 µM [rising, single point].

On to `O=C(NC1CCCCC1)C(c1ccc(F)cc1)N(Cc1cccs1)C(=O)CN1C(=O)c2ccccc2S1(=O)=O` (stereo not drawn), for which the cell number change is -1.48%. Moreover, the AC50 under setting [2] was 1.16 µM [falling, single point].

As to `COc1ccc(N2CCN(C(=O)c3ccc(S(=O)(=O)N4CCCC4)cc3)CC2)cc1`, the cell number change was -41%. Further, the AC50 under setting [1] is 1.16 µM [falling, full curve].

Take `CCOC(=O)CCSCC(=O)Nc1nnc(C)s1`: the cell number change is -23.7%. Also, the AC50 under setting [1] was 2.59 µM [falling, full curve, poor fit]. Moreover, under setting [2], the AC50 was 4.11 µM [falling, single point].

As for `COC(=O)c1ccccc1NC(=O)Nc1nnc(N2CCC(C)CC2)s1`, the cell number change was found to be 16.2%. Moreover, the AC50 under setting [2] was 29.1 µM [rising, single point].

`CC(/C=C/c1ccccc1)=N\Nc1ccccc1[N+](=O)[O-]`: the cell number change was -69.9%. Further, under setting [1], the AC50 is 2.91 µM [falling, full curve, poor fit]. Moreover, the AC50 under setting [2] was 2.06 µM [falling, full curve].

Turning to `NC(=O)C1CCN(c2cc(Cl)nc(N)n2)CC1`, the cell number change is -56.3%. For the same compound, the AC50 under setting [2] was 0.651 µM [falling, full curve, poor fit].

Turning to `O=C(O)c1cc(NCc2ccccc2C(F)(F)F)ccc1N1CCOCC1`, the cell number change turned out to be 24.3%. Under setting [1], the AC50 was 8.2 µM [rising, partial curve, poor fit]. Further, the AC50 under setting [2] was 0.461 µM [rising, partial curve].

Regarding `CCCCCCSc1nsc(NC(=O)CC(C)C)n1`, the cell number change was -24.7%. For the same compound, the AC50 under setting [2] is 0.0326 µM [falling, full curve].

With `Cc1ccc(C)c(-c2cc(C(=O)NCc3cccs3)c3ccccc3n2)c1`, the cell number change is 5.5%. Further, the AC50 under setting [1] was 6.51 µM [rising, partial curve, poor fit].

As for `O=C(O)CSc1cc(NS(=O)(=O)c2ccc(Br)cc2)c2ccccc2c1O`, the cell number change was -31.5%. Further, the AC50 under setting [1] was 29.1 µM [falling, single point]. Moreover, the AC50 under setting [2] was 29.1 µM [falling, single point].

Turning to `CC(C)n1cc(CN2CCC(n3nccc3NC(=O)C3CCCC3)CC2)cn1`, the cell number change was 7.95%. Besides, the AC50 under setting [2] is 1.16 µM [rising, full curve, poor fit].

Regarding `Cc1ccccc1NC(=O)Cn1c(C)nc2ccc(N)cc2c1=O`, the cell number change was found to be 16.2%. Further, the AC50 under setting [2] is 1.84 µM [falling, single point].

Take `O=C(COC(=O)c1cccc(N2C(=O)c3ccccc3C2=O)c1)Nc1ccccc1`: under setting [2], the AC50 was 10.3 µM [rising, partial curve].

In the case of `O=[N+]([O-])c1ccc(NCCN2CCOCC2)c([N+](=O)[O-])c1`, the cell number change is 28.8%. In addition, the AC50 under setting [1] is 0.82 µM [rising, full curve, poor fit].

Regarding `CN1C(=O)c2ccc(N3CCCC3)cc2C1=O`, the cell number change was -7.59%.

For `Cc1ccc(CN2CCSc3ccc(C(=O)NC4CCCC4)cc32)cc1`, the AC50 under setting [2] was 29.1 µM [falling, single point].

In the case of `O=C(O)CN1C(=O)NC2(CCc3ccccc32)C1=O` (stereo not drawn), the cell number change is 21.9%.

Regarding `O=C(O)CCc1ccc(-c2ccccc2)n1NC(=O)c1ccco1`, the cell number change is -9.53%. The AC50 under setting [2] was 6.51 µM [rising, single point].

As for `CC(=O)c1cccc(S(=O)(=O)Nc2ccc(N3CCOCC3)cc2)c1`, the cell number change was -14.1%.

With `CCc1ccc(C(=O)Cn2ncc(Cl)c(Cl)c2=O)cc1`, the cell number change is -27.9%. Further, the AC50 under setting [2] was 6.51 µM [falling, single point].

With `CC(C)Cn1c(N)c(C(=O)COC(=O)Cc2cccs2)c(=O)n(C)c1=O`, the cell number change was -35.9%. In addition, under setting [2], the half-maximal activity concentration (AC50) was 18.4 µM [falling, single point].

As for `CC(OC(=O)C1CCN(S(=O)(=O)c2ccccc2C(F)(F)F)CC1)C(=O)N(C)Cc1ccccc1` (stereo not drawn), the cell number change was determined as 14.8%. The AC50 under setting [2] was 11.6 µM [falling, partial curve].

In the case of `O=C(O)CSCc1nc2scc(-c3ccccc3)c2c(=O)[nH]1`, the cell number change is -4.37%.

For `O=C(Nc1ccc(N2CCOCC2)cc1N1CCOCC1)c1ncoc1-c1cccc(F)c1`, the cell number change is -11.5%.

Turning to `COc1cc(OC)cc(C(=O)Nc2nc(CC(=O)NC(C)c3ccccc3)cs2)c1` (stereo not drawn), the cell number change was -16.8%. Also, the AC50 under setting [2] was 6.51 µM [rising, single point].

Turning to `Cc1cccc(C)c1NCC(=O)N1CCN(Cc2ccccc2)CC1`, the cell number change was found to be 21.5%. The AC50 under setting [2] is 0.58 µM [rising, full curve, poor fit].

Consider `Cc1nc2nc(C)c(CCC(=O)Nc3ccc4c(c3)OCO4)c(C)n2n1`, for which the cell number change is -7.64%. The AC50 under setting [2] was 1.84 µM [rising, partial curve, poor fit].
